# Library screening results

A: 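Whole-cell assay for inhibitors of Mycobacterium tuberculosis growth, labelled Cornell in the record; the read-out is not stated. The concentration is filed as 10 mM, unlikely as a test dose, so the dose is not known. The record gives no direction; compounds strong in two other growth screens of this library score well above the rest, so higher reads as stronger inhibition. Size under these conditions: about 53,000 compounds, about 900 of them at 50% or above in at least one test.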
B: 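Assay on Mycobacterium tuberculosis, filed only as a heat shock assay from Cornell; the read-out is not stated. The concentration is filed as 10 mM, unlikely as a test dose, so the dose is not known. Direction is inferred from retests: higher values go with stronger inhibition. About 69,000 compounds were tested under these conditions; 1.4% (about 930) showed 50% or more at least once.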

The filed quantity is “Percent Effect” (%). The controls that fix the scale are not given in the record; negative values are as filed. The compounds are a random part of those screened. A dash means the value is not listed here; it may have been measured.

Compound	A	B
CC(C)(C)n1ncc2c1NC(=O)CC2c1c(F)cccc1F (centres undefined)	13.31	7.508
Cc1cc(NS(=O)(=O)CC2CCCCO2)ccc1F (centres undefined)	10.51	12.7
O[C@@H]1C[C@@H](c2nc(Cc3ccccc3)no2)N(Cc2ccc(F)cc2)C1	-	-23.49
CN(C)c1nc2c(c(N3CCc4c(c(CO)nn4C)C3)n1)CCNC2	-55.45	-14.09
Cl.Cl.O[C@@H]1C[C@@](CNCC2CCCC2)(COc2cccnc2)C[C@@H]1O	11.4	-36.34
Cc1ccc(C(=O)N2CCc3nc4c(C)csc4c(=O)n3CC2)cn1	-	-22.43
CNS(=O)(=O)CCCN1CCCC1c1noc(C)n1 (centres undefined)	-	-5.163
CC(C)COC1CCN(C(=O)c2cc3ccccc3c(=O)[nH]2)CC1	1.891	-6.18
[H][C@@]12CCN(C(=O)NCC)C[C@]1([H])CCN(CC(N)=O)C(=O)C2	-	4.097
COc1ccc(CNC(=O)NCCCNS(C)(=O)=O)cc1OC	-32.18	-18.14
CS(=O)(=O)CCCN(CCCO)C1CCc2ccccc21 (centres undefined)	7.67	-13.71
c1cnn(CC2CN(c3ncnc4ccsc34)CCO2)c1 (centres undefined)	19.92	105.5
Cc1ccccc1CNc1nc(O)cc(C2CC(=O)N(C)C2)n1 (centres undefined)	-68.85	-7.033
Cc1cc(C(=O)NCc2ccnc(N3CCN(C)CC3)c2)no1	-	3.263
CN(C)C(=O)N1CCC2(CC1)CCN(c1ncccn1)C2.O=C(O)C(F)(F)F	-	-19.2
Cl.O=C1CC2(CCCNC2)C(=O)N1Cc1ccc(F)cc1 (centres undefined)	3.607	-11.24
COCC1CC2(CCN(Cc3nccn3C)CC2)CN1c1ncccn1.O=C(O)C(F)(F)F (centres undefined)	11.32	-19.32
Cc1cc2[nH]c(=O)oc2cc1S(=O)(=O)N1CCCC(N(C)C)CC1 (centres undefined)	-5.83	4.989
Cc1nc(C(=O)N2CCN(S(=O)(=O)N(C)C)CC2)c(-c2ccccc2)s1	-1.395	-8.916
Cc1cnc(CN2CCCC(c3nc4ccccc4n3C(C)C)C2)o1 (centres undefined)	-	19.96
O=C(O)C(F)(F)F.O=C(O)C(F)(F)F.c1cnc(NCc2ncn3c2CN(Cc2cccnc2)CCC3)nc1	19.91	3.487
CCn1nccc1CN(C)C(=O)Cn1nc(C)c(C)c1C	1.975	-13.34
CNC(=O)c1ccc(C(=O)N2CCCC(n3nc(C)cc3C)C2)cn1 (centres undefined)	-4.788	-1.969
Cn1ccnc1C1CCCN(C(=O)c2ccncc2F)C1 (centres undefined)	10.89	3.013
CN1CCc2c(sc3c2C(=O)NC(/C=C/c2ccccc2)N3)C1 (centres undefined)	-	-21.46
COCCOC[C@]1(CNCc2ccc(F)cc2)C[C@@H](O)[C@@H](O)C1.Cl	-	-6.138
COc1ccccc1OC1(C(=O)O)CCN(c2ncccc2F)CC1	-16.67	-4.26
O=C(O)C(F)(F)F.[H][C@@]12COC[C@]1(CNS(=O)(=O)CC)CN(Cc1cccc(OC)c1)C2	20.1	-11.48
Cc1nc2c(c(NCCc3nc(C)c(Cl)s3)n1)CCNCC2	1.636	-2.073
Cc1cccc2c1cnn2CCCNC(=O)c1ccnn1C	-	23.7
COc1ncccc1NC(=O)NCC1CCS(=O)(=O)C1 (centres undefined)	-34.51	11.1
Cc1nccn1C1CCCN(C(=O)c2cc(Cl)c3c(c2)OCO3)C1 (centres undefined)	4.08	0.5798
COCc1nn(CC2CC2)c2c1CN(Cc1cccs1)CC2.O=C(O)C(F)(F)F	-	1.737
CCn1nc2c(cc1=O)CN(CC(=O)Nc1nc(C)c(C)s1)CC2	4.901	3.248
CCC(C)Sc1ncc(-c2c(C#N)c(N)nc3c2COCC3)cn1 (centres undefined)	-16.21	-4.172
COc1ccc(CN(C)C(=O)NC(C)c2nncn2C)cc1F (centres undefined)	-0.4924	1.191
COc1ccc2c(c1)OCC(Cc1cncc(N)c1)C2 (centres undefined)	7.626	-0.3449
CCOCC(=O)NC1(c2cccc(Br)c2)CC1	-	10.79
O=C(O)C(F)(F)F.[H][C@@]12COC[C@]1(COCc1cccnc1)CN(C(=O)c1ccccc1C)C2	-4.445	-12.42
CCOc1ccc(S(=O)(=O)N(CCOC)Cc2ccncc2)cc1F	5.055	3.777
O=C(O)C(F)(F)F.[H][C@@]12CCN(Cc3ccc(OC)cc3)C[C@]1(C(=O)NCCOC)CCO2	8.909	-21.49
Cn1ccnc1CN1CCC2(CC1)CCN(Cc1ccoc1)C2.O=C(O)C(F)(F)F.O=C(O)C(F)(F)F	15.85	-25.21
CC(=O)N1C[C@H](NC(=O)c2csc(C(C)C)c2)[C@@H](C(C)C)C1	-9.183	-5.733
CCOC(=O)[C@H]1[C@@H](O)C(=O)N(C)C12CCN(C(=O)c1ccccc1)CC2	10.25	-14.16
CCCNC(=O)c1cc(C(C)C)nc(N2CCCCC2)n1	-	-2.084
[H][C@]12CCNCC[C@@]1([H])S(=O)(=O)N(Cc1cccc(OC)c1)C2	-35.59	-20.41
Cc1ccc(C(=O)Nc2ccc(N(C)C)nc2)n1C	-	-15.18
CC(C)c1ccc(O)c(C(=O)NC2CCN(c3ncccn3)CC2)c1	19.98	7.018
Cc1ccc(NS(=O)(=O)c2cc3c(c(C(=O)O)c2)OCCO3)c(F)c1	-7.98	1.402
CCN(CC)CCNC(=O)c1cnc(C(C)(C)C)s1	17.77	-22.81
CC(C)c1noc(CCCC(=O)N2CCN(Cc3ccncc3)CC2)n1	-31.22	15.1
COCC(C)NC(=O)CN1CCCC1 (centres undefined)	22.08	7.36
OCCCN1CCc2onc(C(c3ccccc3)c3ccccc3)c2C1	-	-10.64
CSc1cccc(NC(C)C(=O)Nc2nccs2)c1 (centres undefined)	-7.168	14.16
CCN(CCc1nc2cc(C)ccc2[nH]1)C(=O)[C@@H](N)CCSC	-18.32	36.03
CCc1[nH]c2c(CNC(=O)[C@@H]3CCCN3C)cc(C)cc2c1C	-9.112	-6.846
CCN(CC)C(=O)C1CCCN(CC(=O)Nc2c(C)nn(CC)c2C)C1 (centres undefined)	-25.1	-6.413
Cc1csc(CCNc2ccc(C#N)cn2)n1	2.017	-3.327
COc1cccc2c1ccn2CCNC(=O)C(C)C	-	-3.515
CCC(=O)N1CCCC(C(=O)c2cnn(-c3ccc(F)cc3)c2N)C1 (centres undefined)	3.411	-12.8
Cc1ccc(C(=O)N2CCC3(CC2)NC(=O)CC3c2ccccc2)cn1.O=C(O)C(F)(F)F (centres undefined)	10.1	0.9431
O=C(O)C(F)(F)F.[H][C@]12CCN(c3cnccn3)CC[C@]1([H])N(CC(C)C)CCO2	19.88	15.61
CCC(O)CN1CCN(C(=O)Cc2cc(C)ccc2OC)CC1 (centres undefined)	-	-24.46
O=C(O)c1ccccc1C1CCN(Cc2ccc(-c3cc[nH]n3)o2)C1 (centres undefined)	-14.73	6.483
CC(Cn1ccnc1)NC(=O)N(C)Cc1ccco1 (centres undefined)	-11.55	2.354
Cc1nn(C)c(C)c1C(=O)NCc1ccnc(OCC(F)(F)F)c1	-	-32.03
[H][C@]12CC[C@]([H])(CN(Cc3cccnc3)C1)N(C(=O)CSc1nncn1C)C2	-	-11.48
Cc1occc1CN(C)Cc1nc2c(cnn2C)c(=O)[nH]1	-32.23	6.592
c1ccc2c(c1)CC(N1CCCN(Cc3cccc4nonc34)CC1)C2	2.159	2.264
O=C(C1CCS(=O)(=O)CC1)N1CCC(Cc2ccc(F)cc2)CC1	-10.2	-11.54
CS(=O)(=O)NCCC(=O)NCc1cccnc1-n1cnc2ccccc21	-	21.8
O=C(O)C(F)(F)F.O=C(O)C(F)(F)F.[H][C@@]12COC[C@H](C(=O)Nc3cccnc3)[C@]1([H])CN(C1CCCC1)C2	-8.987	8.43
CN(Cc1ncnn1C)C(=O)c1ccccc1NCc1ccccc1	-10.83	-28.11
CCCN1CCCC2(CCN(Cc3noc(C4CCCC4)n3)C2)C1=O (centres undefined)	6.395	-24.58
COC(=O)c1ccc(Cn2cnc(C#N)n2)cc1	33.09	-27.01
CC(C)(C)OC(=O)N1CCCN1C(=O)c1cccc2cc[nH]c12	9.704	0.05439
Cc1c(CN2CCC(C(=O)O)(n3ccnc3)CC2)oc2ccccc12	3.186	-24.38
Cc1ncsc1CNc1ccn(Cc2ccccc2)n1	3.861	-23.36
Cc1noc2ncc(C(=O)N(CC3CCOC3)C3CC3)cc12 (centres undefined)	-	7.518
CC(C)(C)n1cc(C2=CCN(CCc3ccccn3)CC2)cn1	-25.03	-4.685

Once more, the final 8:

Result for CN(Cc1ncnn1C)C(=O)c1ccccc1NCc1ccccc1 was A: -10.83%; B: -28.11%.
Result for CCCN1CCCC2(CCN(Cc3noc(C4CCCC4)n3)C2)C1=O (centres undefined) was A: 6.395%; B: -24.58%.
Result for COC(=O)c1ccc(Cn2cnc(C#N)n2)cc1 was A: 33.09%; B: -27.01%.
Result for CC(C)(C)OC(=O)N1CCCN1C(=O)c1cccc2cc[nH]c12 was A: 9.704%; B: 0.05439%.
Result for Cc1c(CN2CCC(C(=O)O)(n3ccnc3)CC2)oc2ccccc12 was A: 3.186%; B: -24.38%.
Result for Cc1ncsc1CNc1ccn(Cc2ccccc2)n1 was A: 3.861%; B: -23.36%.
Result for Cc1noc2ncc(C(=O)N(CC3CCOC3)C3CC3)cc12 (centres undefined) was B: 7.518%.
Result for CC(C)(C)n1cc(C2=CCN(CCc3ccccn3)CC2)cn1 was A: -25.03%; B: -4.685%.

Source: ChEMBL document CHEMBL3988442, “University of Dundee, Small-Polar-MMV Screening Library” (2021).